Data taken from US20230203114A1.
Results are given in words; binding and its absence hold for the method and conditions named. Binding can be weak; no strength is given.

B1: … (SEQ ID NO: 155) (peptide)
peptide: RLLGEEVVRV
B2: … (SEQ ID NO: 156) (peptide)
peptide: SLMMTIINL
B3: … (SEQ ID NO: 157) (peptide)
peptide: SLIERDLKL
B4: … (SEQ ID NO: 158) (peptide)
peptide: GLLDPSVFHV
B5: … (SEQ ID NO: 159) (peptide)
peptide: VLVDDDGIKVV
B6: … (SEQ ID NO: 160) (peptide)
peptide: KLLEFDQLQL
B7: … (SEQ ID NO: 161) (peptide)
peptide: FLKNELDNV
B8: … (SEQ ID NO: 162) (peptide)
peptide: KLMDYIDEL
B9: … (SEQ ID NO: 163) (peptide)
peptide: RLLHEVQEL
B10: … (SEQ ID NO: 164) (peptide)
peptide: KMLDEILLQL
B11: … (SEQ ID NO: 16) (peptide)
peptide: VLVDQSWVL
B12: … (SEQ ID NO: 165) (peptide)
peptide: RLLDFPEAMVL
B13: … (SEQ ID NO: 166) (peptide)
peptide: GLLEARGILGL
B14: … (SEQ ID NO: 167) (peptide)
peptide: SVIDHIHLISV
B15: … (SEQ ID NO: 168) (peptide)
peptide: GLIRFPLMTI
B16: … (SEQ ID NO: 169) (peptide)
peptide: YLAHFIEGL
B17: … (SEQ ID NO: 170) (peptide)
peptide: ALAGGITMV
B18: … (SEQ ID NO: 171) (peptide)
peptide: RLQETEGMVAV
B19: … (SEQ ID NO: 172) (peptide)
peptide: LLLDTVTMQV
B20: … (SEQ ID NO: 173) (peptide)
peptide: KLGDLMVLL
B21: … (SEQ ID NO: 174) (peptide)
peptide: ILLDDNMQIRL
B22: … (SEQ ID NO: 17) (peptide)
peptide: ALAAARVEL
B23: … (SEQ ID NO: 175) (peptide)
peptide: TLLGGKEAQALGV
B24: … (SEQ ID NO: 176) (peptide)
peptide: RTLDKVLEV
B25: … (SEQ ID NO: 177) (peptide)
peptide: ALLQGAIESV
B26: … (SEQ ID NO: 178) (peptide)
peptide: YLFREPATI
B27: … (SEQ ID NO: 181) (peptide)
peptide: NLFDLGGQYLRV
B28: … (SEQ ID NO: 182) (peptide)
peptide: SLNKWIFTV
B29: … (SEQ ID NO: 183) (peptide)
peptide: TLQEVVTGV
B30: … (SEQ ID NO: 184) (peptide)
peptide: SLLDENNVSSYL
B31: … (SEQ ID NO: 185) (peptide)
peptide: VLYTGVVRV
B32: … (SEQ ID NO: 18) (peptide)
peptide: FLSSLKGGLL
B33: … (SEQ ID NO: 186) (peptide)
peptide: KMSEKILLL
B34: … (SEQ ID NO: 187) (peptide)
peptide: GLHNVVYGI
B35: … (SEQ ID NO: 188) (peptide)
peptide: FLVDGPRVQL
B36: … (SEQ ID NO: 189) (peptide)
peptide: AISEVIGKITA
B37: … (SEQ ID NO: 190) (peptide)
peptide: AMAEMVLQV
B38: … (SEQ ID NO: 191) (peptide)
peptide: QLFSEIHNL
B39: … (SEQ ID NO: 19) (peptide)
peptide: RLYTKLLNEA
B40: … (SEQ ID NO: 2) (peptide)
peptide: ALLPRYFFL
B41: … (SEQ ID NO: 20) (peptide)
peptide: YLKDGDVML
B42: … (SEQ ID NO: 21) (peptide)
peptide: VLIDHRWVL
B43: … (SEQ ID NO: 22) (peptide)
peptide: GLIDEVMVL
B44: … (SEQ ID NO: 23) (peptide)
peptide: FLDANGHFV
B45: … (SEQ ID NO: 24) (peptide)
peptide: VLDGVLMEL
B46: … (SEQ ID NO: 26) (peptide)
peptide: GLASKENFSNVSL
B47: … (SEQ ID NO: 27) (peptide)
peptide: LLADEDSSYL
B48: … (SEQ ID NO: 28) (peptide)
peptide: ALTEIQEFI
B49: … (SEQ ID NO: 29) (peptide)
peptide: QMLDVAIRV
B50: … (SEQ ID NO: 3) (peptide)
peptide: RLIPDTLYSV
B51: … (SEQ ID NO: 30) (peptide)
peptide: GLSSAYGGL
B52: … (SEQ ID NO: 31) (peptide)
peptide: LLYGKYVSV
B53: … (SEQ ID NO: 32) (peptide)
peptide: KLNTETFGV
B54: … (SEQ ID NO: 33) (peptide)
peptide: ALWEKNTHL
B55: … (SEQ ID NO: 34) (peptide)
peptide: ILLEKSVSV
B56: … (SEQ ID NO: 35) (peptide)
peptide: KLLDLTVRI
B57: … (SEQ ID NO: 36) (peptide)
peptide: GLLESPSIFNFTA
B58: … (SEQ ID NO: 37) (peptide)
peptide: GLFAGLGGAGA
B59: … (SEQ ID NO: 38) (peptide)
peptide: SLAPTPVSA
B60: … (SEQ ID NO: 40) (peptide)
peptide: ALSNVIHKV
B61: … (SEQ ID NO: 4) (peptide)
peptide: RLAELTVDEFL
B62: … (SEQ ID NO: 41) (peptide)
peptide: ILDDSFKLL
B63: … (SEQ ID NO: 42) (peptide)
peptide: SILDDSFKL
B64: … (SEQ ID NO: 43) (peptide)
peptide: TLDAAQPRV
B65: … (SEQ ID NO: 44) (peptide)
peptide: SLESKLTSV
B66: … (SEQ ID NO: 45) (peptide)
peptide: ALAELLHGA
B67: … (SEQ ID NO: 46) (peptide)
peptide: GLDDRYSLV
B68: … (SEQ ID NO: 47) (peptide)
peptide: KLYERCEVV
B69: … (SEQ ID NO: 48) (peptide)
peptide: FLDASDPAL
B70: … (SEQ ID NO: 50) (peptide)
peptide: TLMAEMHVV
B71: … (SEQ ID NO: 51) (peptide)
peptide: QVWEIQHTV
B72: … (SEQ ID NO: 5) (peptide)
peptide: WLFDDGGLTL
B73: … (SEQ ID NO: 52) (peptide)
peptide: ALDSSNSMQTI
B74: … (SEQ ID NO: 53) (peptide)
peptide: FLLGSEIKL
B75: … (SEQ ID NO: 54) (peptide)
peptide: ALLNGEYLLAA
B76: … (SEQ ID NO: 56) (peptide)
peptide: VLFTDEGVPKFL

target: HLA-A*02:01 (human); experiment: UV-ligand exchange + anti-b2m ELISA; peptide exchange yield grade (+ >=10%, ++ >=20%, +++ >=50%, ++++ >=75%)

binding, binds:
B1
B2
B3
B4
B5
B6
B7
B8
B9
B10
B11
B12
B13
B14
B15
B16
B17
B18
B19
B20
B21
B22
B23
B24
B25
B26
B27
B28
B29
B30
B31
B32
B33
B34
B35
B36
B37
B38
B39
B40
B41
B42
B43
B44
B45
B46
B47
B48
B49
B50
B51
B52
B53
B54
B55
B56
B57
B58
B59
B60
B61
B62
B63
B64
B65
B66
B67
B68
B69
B70
B71
B72
B73
B74
B75
B76
